PubChem BioAssay AID1508597 – Cure First – 2020

- Screen: 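Survival screen with siRNA in ovarian cancer cells derived from patients, with or without rucaparib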 (primary screen)
- System: human ovarian carcinoma lines grown from tumours: OCI-P5x (papillary serous) and OCI-C5x (clear cell)
- Reagent: siRNA pool against human genes, 1.25 pmol siRNA per well
- Time to read-out: 72 h or 96 h, depending on the cell culture
- Challenge: rucaparib 20 µM (about IC30) or vehicle, present until read-out
- Rucaparib or vehicle: Rucaparib
- Cell line: OCI-C5x (clear cell)
- Measurement: 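Luminescent ATP-based viability assay read 72 or 96 h after transfection, depending on culture, given as normalised percent viability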
- Scale: viability, normalised: higher = more viable cells remaining
- Hit rule: 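a well counts as a hit if its normalised viability is under 80 percent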
- Calls: active = viability under 80%; inactive = viability 80% or more
Shown is a random part of the about 2,100 reagents, in one setting of the screen. 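Calls flag viability under 80% in either arm, not effects specific to rucaparib; the reference for percent is not stated.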 A reagent listed more than once was tested more than once; the source does not tell the runs apart. No sequences are given here. The record does not give: the 100% reference.

| gene | technical replicate | viability, normalised (%) | outcome |
| --- | --- | --- | --- |
| CLDN19 (claudin 19) | 1 | 30.9 | active |
| CLDN19 (claudin 19) | 2 | 26.8 | active |
| CLDN19 (claudin 19) | 3 | 22.7 | active |
| PAK1 (p21 (RAC1) activated kinase 1) | 1 | 72.2 | active |
| PAK1 (p21 (RAC1) activated kinase 1) | 2 | 72.4 | active |
| PAK1 (p21 (RAC1) activated kinase 1) | 3 | 73.2 | active |
| MRE11 (MRE11 double strand break repair nuclease) | 1 | 71.2 | active |
| MRE11 (MRE11 double strand break repair nuclease) | 2 | 61.2 | active |
| MRE11 (MRE11 double strand break repair nuclease) | 3 | 66.8 | active |
| TDRD9 (tudor domain containing 9) | 1 | 56.6 | active |
| TDRD9 (tudor domain containing 9) | 2 | 59.6 | active |
| TDRD9 (tudor domain containing 9) | 3 | 48.6 | active |
| NRK (Nik related kinase) | 1 | 60.1 | active |
| NRK (Nik related kinase) | 2 | 47.3 | active |
| NRK (Nik related kinase) | 3 | 52.4 | active |
| GFI1B (growth factor independent 1B transcriptional repressor) | 1 | 50.1 | active |
| GFI1B (growth factor independent 1B transcriptional repressor) | 2 | 37.4 | active |
| GFI1B (growth factor independent 1B transcriptional repressor) | 3 | 41.9 | active |
| RPS6KC1 (ribosomal protein S6 kinase C1) | 1 | 58.9 | active |
| RPS6KC1 (ribosomal protein S6 kinase C1) | 2 | 67.6 | active |
| RPS6KC1 (ribosomal protein S6 kinase C1) | 3 | 56 | active |
| ATRX (ATRX chromatin remodeler) | 1 | 65.9 | active |
| ATRX (ATRX chromatin remodeler) | 1 | 42.7 | active |
| ATRX (ATRX chromatin remodeler) | 2 | 52.4 | active |
| ATRX (ATRX chromatin remodeler) | 2 | 34.1 | active |
| ATRX (ATRX chromatin remodeler) | 3 | 59.1 | active |
| ATRX (ATRX chromatin remodeler) | 3 | 45.7 | active |

Continued; the last 7 above are carried over.
| gene | technical replicate | viability, normalised (%) | outcome |
| --- | --- | --- | --- |
| RPS6KC1 (ribosomal protein S6 kinase C1) | 3 | 56 | active |
| ATRX (ATRX chromatin remodeler) | 1 | 65.9 | active |
| ATRX (ATRX chromatin remodeler) | 1 | 42.7 | active |
| ATRX (ATRX chromatin remodeler) | 2 | 52.4 | active |
| ATRX (ATRX chromatin remodeler) | 2 | 34.1 | active |
| ATRX (ATRX chromatin remodeler) | 3 | 59.1 | active |
| ATRX (ATRX chromatin remodeler) | 3 | 45.7 | active |
| USH2A (usherin) | 1 | 80.9 | inactive |
| USH2A (usherin) | 2 | 70.6 | active |
| USH2A (usherin) | 3 | 75 | active |
| BCKDK (branched chain keto acid dehydrogenase kinase) | 1 | 45.6 | active |
| BCKDK (branched chain keto acid dehydrogenase kinase) | 2 | 54.2 | active |
| BCKDK (branched chain keto acid dehydrogenase kinase) | 3 | 54.1 | active |
| TLK2 (tousled like kinase 2) | 1 | 54.2 | active |
| TLK2 (tousled like kinase 2) | 1 | 60.6 | active |
| TLK2 (tousled like kinase 2) | 2 | 56.1 | active |
| TLK2 (tousled like kinase 2) | 2 | 40.1 | active |
| TLK2 (tousled like kinase 2) | 3 | 45.9 | active |
| TLK2 (tousled like kinase 2) | 3 | 58.9 | active |
| PTTG2 (pituitary tumor-transforming 2) | 1 | 76.8 | active |
| PTTG2 (pituitary tumor-transforming 2) | 2 | 54.2 | active |
| PTTG2 (pituitary tumor-transforming 2) | 3 | 32.4 | active |
| TGFBR1 (transforming growth factor beta receptor 1) | 1 | 76.7 | active |
| TGFBR1 (transforming growth factor beta receptor 1) | 2 | 60.9 | active |
| TGFBR1 (transforming growth factor beta receptor 1) | 3 | 58.4 | active |
| TNRC6B (trinucleotide repeat containing adaptor 6B) | 1 | 58.8 | active |
| TNRC6B (trinucleotide repeat containing adaptor 6B) | 2 | 49.9 | active |
| TNRC6B (trinucleotide repeat containing adaptor 6B) | 3 | 49.7 | active |
| STK32A (serine/threonine kinase 32A) | 1 | 45.4 | active |
| STK32A (serine/threonine kinase 32A) | 2 | 56.4 | active |
| STK32A (serine/threonine kinase 32A) | 3 | 48.7 | active |
| TTF2 (transcription termination factor 2) | 1 | 68.7 | active |
| TTF2 (transcription termination factor 2) | 2 | 57.9 | active |
| TTF2 (transcription termination factor 2) | 3 | 51.4 | active |
| TRIM16 (tripartite motif containing 16) | 1 | 74.5 | active |
| TRIM16 (tripartite motif containing 16) | 2 | 57.8 | active |
| TRIM16 (tripartite motif containing 16) | 3 | 44.5 | active |
